# Experimental data: PubChem BioAssay AID1117319 (Southern Research Institute, 2015)
# The chains behind the UniProt entries cited, without tags or fusion partners. Where a name states a change or a piece, a line headed by the entry shows the natural chain unless it says otherwise.
# UniProt P69720: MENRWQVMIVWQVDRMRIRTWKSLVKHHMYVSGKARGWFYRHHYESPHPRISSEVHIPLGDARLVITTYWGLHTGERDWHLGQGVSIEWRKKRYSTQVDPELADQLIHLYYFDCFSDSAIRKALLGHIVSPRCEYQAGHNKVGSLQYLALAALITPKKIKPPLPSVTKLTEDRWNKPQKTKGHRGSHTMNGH
# UniProt P69721: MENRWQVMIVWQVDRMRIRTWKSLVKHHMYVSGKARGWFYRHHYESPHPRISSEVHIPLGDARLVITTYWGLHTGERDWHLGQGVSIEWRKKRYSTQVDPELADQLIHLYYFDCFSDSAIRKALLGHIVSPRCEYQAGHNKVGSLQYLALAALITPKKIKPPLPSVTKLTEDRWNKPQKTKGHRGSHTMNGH
# UniProt P69722: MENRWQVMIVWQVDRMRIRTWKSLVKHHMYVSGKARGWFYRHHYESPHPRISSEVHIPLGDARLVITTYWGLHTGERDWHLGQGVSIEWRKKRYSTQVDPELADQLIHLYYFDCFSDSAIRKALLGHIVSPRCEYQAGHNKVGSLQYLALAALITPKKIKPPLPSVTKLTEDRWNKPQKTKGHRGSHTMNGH
# UniProt P69723: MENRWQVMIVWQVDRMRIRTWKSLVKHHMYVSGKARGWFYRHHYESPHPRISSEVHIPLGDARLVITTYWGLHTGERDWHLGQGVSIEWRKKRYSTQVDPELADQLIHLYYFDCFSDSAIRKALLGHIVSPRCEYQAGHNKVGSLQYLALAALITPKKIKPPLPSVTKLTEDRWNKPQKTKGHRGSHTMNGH
# UniProt Q9HC16: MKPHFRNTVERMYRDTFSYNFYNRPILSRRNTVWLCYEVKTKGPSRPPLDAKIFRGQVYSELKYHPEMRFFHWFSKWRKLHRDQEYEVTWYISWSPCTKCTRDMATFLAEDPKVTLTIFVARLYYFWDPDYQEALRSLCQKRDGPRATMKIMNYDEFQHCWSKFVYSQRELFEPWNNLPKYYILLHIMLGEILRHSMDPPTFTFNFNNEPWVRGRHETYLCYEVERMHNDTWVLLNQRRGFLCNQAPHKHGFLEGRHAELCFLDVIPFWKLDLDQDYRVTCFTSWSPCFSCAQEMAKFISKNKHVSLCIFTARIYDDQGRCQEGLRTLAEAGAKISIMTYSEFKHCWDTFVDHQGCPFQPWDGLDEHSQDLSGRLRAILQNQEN
# The whole screen tested about 260,000 compounds, of which about 1,500 (0.58%) were called active. This list was built around the results that the source calls inconclusive (neither active nor inactive); the mix of calls is not that of the screen.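 The calls were made as follows: active = inhibition above a set limit at one or more doses, reproduced on every date tested; inconclusive = results disagree between test dates, or hit never tested in dose response; inactive = the rest.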
# Target: Virion infectivity factor (Human immunodeficiency virus type 1 group M subtype B (isolate BH10)) + Virion infectivity factor (Human immunodeficiency virus type 1 group M subtype B (isolate BRU/LAI)) + Virion infectivity factor (Human immunodeficiency virus type 1 group M subtype B (isolate PCV12)) + Virion infectivity factor (Human immunodeficiency virus type 1 group M subtype B (isolate HXB2)) + DNA dC->dU-editing enzyme APOBEC-3G (Homo sapiens) (UniProt P69720+P69721+P69722+P69723+Q9HC16)
# Experiment: inhibitors of Vif binding to APOBEC3G peptide, primary screen, biochemical, TR-FRET, GST-Vif 1-94, biotin-A3G peptide, dose response retest (AID 1117319);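 also: Vif residues 1-94 fused to GST binding biotinylated APOBEC3G peptide 110-148; 0% = full assay without inhibitor and 100% = GST in place of GST-Vif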
# Conditions: stronger effect = higher value
row,Structure (SMILES),inhibition
1,O=C1NC(c2ccccn2)Nc2sc3c(c21)CCC3 (stereo not given),inconclusive: 42.9%
2,Cc1ccc2cc(C#N)c(N3CCN(C)CC3)nc2c1,inactive: 3.3%
3,COc1ccc(N2CSC3=C(C#N)C(c4cc(OC)ccc4OC)CC(=O)N3C2)c(OC)c1 (stereo not given),inconclusive: 33.7%
4,COc1ccccc1CCc1nnc(CCC(=O)NCCCOc2cccnc2)o1,inconclusive: 33.5%
5,COc1cc(C)c(S(=O)(=O)Nc2ccccc2F)cc1C,inconclusive: 36%
6,Cc1n[nH]c(=O)nc1NCc1ccccc1Cl,inconclusive: 41.5%
7,CCCCN1C(=O)NC(NC(=O)c2ccco2)(C(F)(F)F)C1=O (stereo not given),inactive: -1.08%
8,COc1ccc(C)cc1NC(=O)c1cnc2scc(C)n2c1=O,inactive: -5.79%
9,O=C(N/N=C/c1cccc(O)c1)c1cc(-c2ccc3c(c2)OCO3)n[nH]1,inconclusive: 37.8%
10,Cc1c(/C=N/NC(=O)COc2ccccc2[N+](=O)[O-])c2ccccc2n1C,inconclusive: 42.5%
11,COc1ccccc1CNC(=O)COc1ccc2c(c1)CCC2,inactive: -14.6%
12,COc1ccccc1C1CC(=O)Nc2cc3c(cc21)OCCO3 (stereo not given),inconclusive: 39.7%
13,Cc1c(C(=O)NCCSCc2ccccc2)cccc1[N+](=O)[O-],inconclusive: 36.5%
14,O=C(N/N=C/c1ccccn1)c1ccc2nc[nH]c2c1,inconclusive: 35.3%
15,Cc1ccc(NC(=O)c2cc(-c3ccc(C)o3)nc3ccccc23)cc1,inactive: 20.7%
16,O=C(Nc1ccc(N2CCCC2)cc1)c1ccc(Br)o1,inconclusive: 54.7%
17,CCCCn1nnnc1SCC(=O)c1ccc(C)c(C)c1,inconclusive: 35.1%
18,O=C(O)c1cccc(N2CCCC2)c1,inconclusive: 46%
19,Cc1ccc(C(CC(=O)N2CCCCC2)c2ccccc2)c(O)c1C (stereo not given),inactive: -1.48%
20,S=c1[nH]nc2n1CCCN2,inconclusive: 45%
21,CCCn1c(=O)c(-c2ccccc2)c(O)c2ccccc21,inconclusive: 68.7%
22,C=CCc1c(O)c(CC)cc2c(C)cc(=O)oc12,inconclusive: 56.5%
23,O=C(Nc1ccc2c(c1)OCO2)C(c1ccccc1)N1CCN(C(=O)c2ccco2)CC1 (stereo not given),inconclusive: 35.3%

row,Structure (SMILES),inhibition
1,CCCCOc1ccc(Nc2cc(Cl)ccc2C(=O)O)cn1,inconclusive: 57.9%
2,Cc1ccc(OCCN2C(=O)C(=O)c3cccc(C)c32)cc1,inconclusive: 48.4%
3,Cc1ccc(S(=O)(=O)N2CCOCC2)cc1NC(=O)CN1CCN(c2ccc(O)cc2)CC1,inconclusive: 50.6%
4,CN(C)C(CNC(=O)c1ccccc1C(F)(F)F)c1ccco1 (stereo not given),inactive: 19%
5,CC(=O)Nc1ccc2c(O)cc(S(=O)(=O)O)cc2c1,inactive: 19.9%
6,O=C(CSc1nnc(SCc2ccc(Cl)cc2)s1)N/N=C/c1ccc(Cl)cc1Cl,inconclusive: 39.5%
7,O=Cc1ccc(O)c(O)c1,inactive: 0.2%
8,O=C1CC(N2CCC(c3nc4ccccc4[nH]3)CC2)C(=O)N1c1cccc(F)c1 (stereo not given),inconclusive: 63.5%
9,COc1ccc(-c2cc(C(F)F)n3ncc(C(=O)N4CCN5CCCC5C4)c3n2)cc1 (stereo not given),inconclusive: 40.4%
10,Cc1ccc(N2CC(=O)N(c3ccc(C)cc3)CC2=O)cc1,inconclusive: 48.5%
11,O=C1ON=C(c2ccccc2)/C1=C/c1ccco1,inconclusive: 63.9%
12,CCn1nnc(NC(=O)c2cc(Cl)c(OC)c(Cl)c2)n1,inconclusive: 42.3%
13,NC1=NC(=O)/C(=C/c2cccs2)S1,inactive: 10%
14,Cc1sc2cc3c(c(C(=O)c4ccccc4)[n+]2c1C)-c1cccc2cccc-3c12,inconclusive: 54.1%
15,Cc1[nH]c2ccccc2c1/C=N\NC(=O)CNc1ccc2c(c1)OCO2,inconclusive: 33.2%
16,COc1ccc(C(=O)NNC(=O)CCC(=O)Nc2cc(C)on2)cc1,inconclusive: 42.4%
17,CCC(C)(C)NC(=O)c1ccc(S(=O)(=O)N2CCCCCC2)cc1,inconclusive: 36.9%
18,COCCCNC(=O)CN(c1cc(C(F)(F)F)ccc1Cl)S(C)(=O)=O,inconclusive: 62%
19,NS(=O)(=O)c1cccc(NC(=O)Cn2cnc3ccccc3c2=O)c1,inconclusive: 58.6%
20,Cn1c2ccccc2c(=O)n2c(=O)c3ccccc3cc12,inconclusive: 39.1%
21,CCCCCCNC(=O)C(=O)NCCc1ccc(Cl)cc1,inconclusive: 38.8%
22,O=C(/C=C/c1ccccc1Cl)c1ccccc(=O)c1O,inconclusive: 54%
23,C/C(CC(=O)Nc1ccc(N(C)C)cc1)=N\NC(=O)c1ccc([N+](=O)[O-])cc1Cl,inconclusive: 52.3%

row,Structure (SMILES),inhibition
1,COc1ccc(C(=O)NCC(=O)N/N=C/c2c(C)[nH]c3ccccc23)cc1OC,inconclusive: 41.7%
2,CSc1nc(-c2ccccc2)nc(NC(=O)C(C)C)c1C(C)=O,inconclusive: 61.3%
3,CCC(OC(=O)c1nsc(Cl)c1Cl)C(=O)NCc1ccco1 (stereo not given),inconclusive: 36.5%
4,CCOc1ccc(N2C(=O)CC(SC(=NC)Nc3ccc4c(c3)OCO4)C2=O)cc1 (stereo not given),inconclusive: 33.9%
5,COc1cc(CCC(=O)OCC(=O)Nc2ccccc2C(C)C)cc(OC)c1OC,inconclusive: 51.2%
6,Oc1ccc(/C=N/N2CCN(C3c4ccccc4-c4ccccc43)CC2)cc1O,inconclusive: 43.9%
7,O=C(N/N=C\C=C\c1ccco1)c1cncc(Br)c1,inconclusive: 63.5%
8,CCCCCCN(C(=O)CCCCCN1C(=O)NC(c2ccccc2)C(C(=O)OCc2ccccc2)=C1C)C(C(=O)NCCCC)c1ccc(OCC(=O)OC)c(C(=O)OC)c1 (stereo not given),inconclusive: 62.7%
9,CCOC(=O)N1CCC(NC(=O)CSCc2cnn(-c3ccccc3)c2-n2cccc2)CC1,inconclusive: 58.3%
10,COc1ccc(S(=O)(=O)Nc2cccc(C)n2)c2ccccc12,inconclusive: 34.3%
11,Cc1ccccc1NC(=S)NC(NC(=O)c1ccco1)C(Cl)(Cl)Cl (stereo not given),inconclusive: 37.3%
12,COCc1cc(=O)n2[nH]c(-c3cccc(Br)c3)cc2n1,inconclusive: 34.6%
13,COc1ccc(CCn2c(O)cc3nn(-c4nc5ccccc5s4)c(=O)c-3c2C)cc1,inconclusive: 43.5%
14,CCC(COC(=O)Nc1cccc(C)c1C)NC(=O)OCC(C)C (stereo not given),inconclusive: 37.1%
15,Cc1ccc(-n2c(-c3ccccc3)nnc2-c2cccs2)cc1,inactive: -9.97%
16,CCN1CCN(S(=O)(=O)c2ccc(OC)c3ccccc23)CC1,inconclusive: 40.4%
17,N#CNC(=Nc1ccccc1)SCc1ccc(C(=O)O)cc1,inconclusive: 33.8%
18,COc1cc(/C=N/NC(=S)Nc2cccnc2)cc(OC)c1O,inconclusive: 62.6%
19,CCOc1ccccc1NC(=O)c1cc(C(=O)c2cc(Br)ccc2O)coc1=N,inconclusive: 40.7%
20,COc1ccc2c(CC(=O)OCC(=O)Nc3ccc4c(c3)OCO4)coc2c1,inconclusive: 35.6%
21,COC(=O)c1cc(-c2ccc(S(=O)(=O)N3CCCCC3)cc2)c(C(F)(F)F)s1,inconclusive: 33.2%
22,CN(C)CCC=C1c2ccccc2CCc2ccccc21,inconclusive: 35.8%
23,CCOC(=O)c1c(C)oc2c1c(C=NCC1CCCO1)c(O)c1ccccc12 (stereo not given),inactive: 25.6%

# For reference, part of the list above:
row,Structure (SMILES),inhibition
5,COc1cc(CCC(=O)OCC(=O)Nc2ccccc2C(C)C)cc(OC)c1OC,inconclusive: 51.2%
6,Oc1ccc(/C=N/N2CCN(C3c4ccccc4-c4ccccc43)CC2)cc1O,inconclusive: 43.9%
7,O=C(N/N=C\C=C\c1ccco1)c1cncc(Br)c1,inconclusive: 63.5%
8,CCCCCCN(C(=O)CCCCCN1C(=O)NC(c2ccccc2)C(C(=O)OCc2ccccc2)=C1C)C(C(=O)NCCCC)c1ccc(OCC(=O)OC)c(C(=O)OC)c1 (stereo not given),inconclusive: 62.7%
9,CCOC(=O)N1CCC(NC(=O)CSCc2cnn(-c3ccccc3)c2-n2cccc2)CC1,inconclusive: 58.3%
10,COc1ccc(S(=O)(=O)Nc2cccc(C)n2)c2ccccc12,inconclusive: 34.3%

# Next part:

row,Structure (SMILES),inhibition
1,COC(=O)c1ccc(CSc2nc(C)nc3sc(C)c(C)c23)o1,inconclusive: 40.1%
2,CN(C)S(=O)(=O)Oc1cccc(C(=O)Nc2cccc(Cl)c2)c1,inconclusive: 35.9%
3,CCOc1ccc(NC(=O)N[C@@H](Cc2ccccc2)C(=O)O)cc1,inactive: 3.58%
4,COc1ccc(-c2n[nH]c(=S)n2-c2cc(OC)ccc2OC)cc1,inconclusive: 35.5%
5,CCOc1ccc(Cl)cc1CNCCCSc1nc(C)cc(C)n1,inconclusive: 58.1%
6,CC(C)(C)OC(=O)NCCCC[C@H](NC(=O)c1nc[nH]c1C(=O)N[C@@H](CCCCNC(=O)OC(C)(C)C)C(=O)OC(C)(C)C)C(=O)OC(C)(C)C,inactive: -5.41%
7,O=C(c1ccc(CS(=O)(=O)c2ccc(Br)cc2)o1)N1CCN(C2CCCCC2)CC1,inconclusive: 34.5%
8,CC(=O)C1CCC2C3CC(C)=C4CC(O)CCC4(C)C3CCC12C (stereo not given),inconclusive: 33.2%
9,COc1ccc(Cl)cc1C(=O)OCC(=O)NC(=O)c1cccn1C,inactive: -9.04%
10,Cc1cc[n+](CC(=O)c2cccs2)cc1,inconclusive: 36%
11,CN(C)Cc1c(C(=O)N/N=C/c2cccc(OCc3ccccc3)c2)nnn1-c1nonc1N,inactive: 19.4%
12,COCCNC(=O)C(OC(=O)c1ccco1)c1ccccc1F (stereo not given),inconclusive: 34%
13,O=C(NC1CCCCCC1)C(Cc1ccccc1)n1cccc1 (stereo not given),inconclusive: 36.6%
14,CCc1ccccc1NC(=S)NC1CC2CCC(C1)N2Cc1ccc(F)cc1 (stereo not given),inconclusive: 43.1%
15,CCCOc1ccc(N2C(=O)CC(NCc3cccnc3)C2=O)cc1 (stereo not given),inconclusive: 37%
16,Nc1n[nH]c(C2CC2)c1N=Nc1ccc(Cl)c(Cl)c1,inconclusive: 38.1%
17,FC(F)(F)c1cc(CCN2C(=S)NC[C@@H]2CC2CCCCC2)cc(C(F)(F)F)c1,inconclusive: 51.6%
18,Cc1[nH]c2ccccc2c1C(=O)CSc1nc2ccccc2[nH]1,inactive: 30.3%
19,COCCCN1C(=O)C(=O)/C(=C(/O)c2ccccc2)C1c1ccc(N(C)C)cc1 (stereo not given),inconclusive: 52.4%
20,O=C(C1=C[C@@H](c2ccc(Br)cc2)C[C@@H](OCc2ccc(CO)cc2)O1)N1CCN(Cc2ccccc2)CC1,inconclusive: 47.1%
21,CCOC(=O)N1CCC(N2C(=O)c3ccccc3C2Nc2cc(OC)c(OC)c(OC)c2)CC1 (stereo not given),inconclusive: 35.8%
